According to patent publication US11099176B2 (Duke University, priority 2015, dated 2021):

Test: Lactate-mediated fluorescence emission response of fluorescent conjugates (cysteine and fluorophore scan)
Format: biochemical
Conditions: dominant excited-state population in the absence of lactate
Description: Semi-synthetic FRSs can be engineered by site-specifically attaching thiol-reactive, environmentally sensitive fluorophores that respond to ligand-mediated conformational changes. Identification of FRS candidates that can be used for sensing applications comprises three steps: • 1. Cysteine scan. Mutant lactate-binding proteins containing single cysteines are constructed for site-specific attachment of thiol-reactive fluorophores. […] Candidate positions fall into three classes: endosteric, replacing a residue that contacts the ligand directly; peristeric, located at the rim of the binding site; allosteric (Marvin et al., 1997, Proc Natl Acad Sci USA, 94, 4366-71; Marvin, 1998, J Am Chem Soc, 120, 7-11), located outside the binding site at sites that undergo local structural changes in concert with the hinge-bending motion. • 2. Fluorophore screening. […] Responses to ligand binding in which there is both a change in fluorescence emission intensity and spectral shape are essential for chemometric applications, because such changes enable ratiometric measurements. […]
We constructed seventeen single cysteine mutants in msLacBP6, exploring one endosteric, fourteen peristeric, and two allosteric positions. Two dominant electronic transitions give rise to fluorescence emission in these fluorophores with maxima in the blue (<500 nm) and green (>500 nm) regions, respectively.

B1: Y187C (conjugate)
chain: MATTWKIQSVWDAGTVGYDLFKEWCDGMEEKTGGELKFTCFPAKAVAADNNGLFDAVRNGVLQGMNPFTLYWSGKIPASVFLSSYPAGPDQPHQWDTMFYSLGMLEKTREIYKKFGLFYVGPIQHDANIIHSKQPINSLDDLKGLKMRLPGGMVAEVFAKFGVAAVSLPGSDIFPALEKGTIDAADCVGPAVNWELGFSQVTKYILMGPPGIMSVYQPVDLMDLTVNLRAWNALDPKLQQIVEDEVRIYSQKHYLAIQKRNIEAMKKFEAAGTTVTRLSQEDLQEFRRAAIPIWYSWANKDEDAREIFDMQLEYMMNDTVGYITEDDIKGMN
modifications: conjugated fluorophore; msLacBP6 (with signal peptide replaced with M)
In the case of B1, the “Response Acrylodan Excited states” value (Acrylodan conjugate) is reported as “b (b, blue (maxima < 500 nm))” and the “Response Badan Excited states” value (Badan conjugate) is reported as “g (g, green (maxima > 500 nm))”.
